Test results published in the supplement of paper PMC10338343.
± gives the standard deviation. This is a selection; strong and weak results do not stand in their true shares. Many entries were measured with a wide error.

system: MILI (PIWIL2) piRISC loaded with Kctd7 piRNA (26 nt); experiment: pre-steady-state target cleavage rate (min^-1); MIWI and MILI are mouse PIWI proteins and EfPiwi is from a freshwater sponge; tags in brackets are library labels; higher = faster piRNA-guided slicing of the target; settings: guide: Kctd7 piRNA 5'p-UGUUAAUCUCUCAGAGAAGGUGACAG; auxiliary factor: 500 nM mouse GTSF1
Description: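 Cleave-'n-Seq: a library of target RNAs (target site embedded in constant flanks, ACAGCATTCCGCGTTAGTGATATCCG... 5' flank; DNA-blocked outside the site) at 0.1 nM was incubated with 1 nM active mouse MILI or MIWI piRISC (synthetic 5'-monophosphorylated piRNA guide) with or without 500 nM mouse GTSF1 at 33 °C for 1 min to 16 h. Uncleaved targets were sequenced and normalised to non-target controls, and the pooled three trials were fitted to a burst-and-steady-state model to give the pre-steady-state cleavage rate (min^-1; k3 is constrained to at most 1e-4). Sequence is the target site only; target names encode pairing extent (gX:gY) and contiguous / 1-mismatch / 2-mismatch / bulge geometry. Fits with R² ≤ 0 are excluded.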

| Sequence | pre-steady-state target cleavage rate |
| --- | --- |
| UAGUGACUCACCUUCUCUCUGAGAUUUUGA | 0.00108 ± 0.0094 |
| UAGUCUGUCACCAUCACUGAGAGAUUAACA | 0.11 ± 0.0083 |
| UAGUGACAGUGGAAGACUGAGUCAUUAACA | 0.000475 ± 0.0097 |
| UAGUGAGUGACCUUGUCUGAGAGAUUAACA | 0.0726 ± 0.014 |
| UAGUGACUCACCUUCUCUGAGAGAAAUAGA | 0.002 ± 0.0062 |
| UAGUGACAGUGGAAGAGACACUCAUUAACA | 0.000371 ± 0.016 |
| UAGUCUGUGUGCUUCUCUGAGAGAUUAAGA | 0.00145 ± 0.0028 |
| UAGUGAGUCAGCUACUCUGAGAGAUUAACA | 0.135 ± 0.01 |
| UAGUGACAGUGCAUCUCUGAGAGUUUAACA | 0.00108 ± 0.0066 |
| UAGUGUGAGUCCUUCUCUGAGAGAUUUUGA | 0.00162 ± 0.0052 |
| UAGUGACAGACCUUCUGUGAGUGAUUAACA | 0.00248 ± 0.0057 |
| UAGUGACAGUGCAUCUCUCAGAGAUUAACA | 0.00252 ± 0.0038 |
| UAGUGUGUGCACCUUCUCUGAGAGAUUAACA | 0.195 ± 0.021 |
| UAGUGACUCACCUUCUCUGACAGAUUAUGA | 0.00329 ± 0.0038 |
| UAGUGACUCACCUUCUCUGAGACAAUAACA | 0.00231 ± 0.0053 |
| UAGUGACAGACCUUCUCUGAGAGAUUUAGA | 0.00153 ± 0.0093 |
| UAGUGACAGACCUACUCUGAGUGAUUAACA | 0.00137 ± 0.0069 |
| UAGUGACAGACCUUCUCUGAGAGUAUAUGA | 0.000792 ± 0.013 |
| UAGUGAGUCACCUUCUCUCAGAGUUUAACA | 0.0248 ± 0.0099 |
| UAGUGACACACCUUCUCUGAGACUAUAACA | 0.000681 ± 0.011 |
| UAGUGACAGUGGACCUCUGAGAGAUUAACA | 0.00174 ± 0.0044 |
| UAGUGUGUCACCUACUCUGAGAGAUUAUGA | 0.0343 ± 0.015 |
| UAGUGACACACCAACUCUGAGAGAUUUUGA | 0.000153 ± 0.019 |

| Sequence | pre-steady-state target cleavage rate |
| --- | --- |
| UAGUGACAGACCUUCUCUGAGAGAUAAUCA | 0.00507 ± 0.0052 |
| UAGUGACUCACCUUCUCUGAGGAGAUUAACA | 0.00396 ± 0.0044 |
| UAGUGACAGUGGAAGAGACAGAGAUUAUACA | 0.000308 ± 0.027 |
| UAGUGACACACCUUCUCUGAUGAGAUUAACA | 0.00949 ± 0.0043 |
| UAGUGACACACCUUCUCACAGAGAUUAUGA | 0.00158 ± 0.0073 |
| UAGUGACAGUGGAAGUCUGAGAGAUUAACU [g2:g15:cont:t1U] | 0.00103 ± 0.0037 |
| UAGUGUGUCACCUUCUCUGAGACUAUAACA | 0.00359 ± 0.006 |
| UAGUGACAGUGCUUCUCUGAGACGAUUAACA | 0.00197 ± 0.0034 |
| UAGUGACAGUGGAAGAGACAGAGAAUAUCA | 0.000361 ± 0.019 |
| UAGUGACUCACCUUCUCUGAGUGAUAAACA | 0.000862 ± 0.0082 |
| UAGUGACAGUCCUACUCUGAGUGAUUAACA | 0.000873 ± 0.0076 |
| UAGUGUGUCACCUUCUGUGAGUGAUUAACA | 0.00317 ± 0.0049 |
| UAGUGUGUCACGAUCUCUGAGAGAUUUUGA | 0.00172 ± 0.0062 |
| UAGUGACAGUCGUUCUCUGAGACAUUAACA | 0.000881 ± 0.0093 |
| UAGUGACUCACCUUCUCUGAGACAUUUACA | 0.00258 ± 0.0046 |
| UAGUCUGUCACCUUCUCUGUGAGUUUAACA | 0.0314 ± 0.0059 |
| UAGUCUGUCAGGUUCUCUGAGAGAUAUUGA | 0.00052 ± 0.0079 |
| UAGUGAGUCACCUUGACUGAGAGAUAUUGA | 0.000362 ± 0.026 |
| UAGUGACACACCUUCUCUCUCAGAUUUUGA | 0.000547 ± 0.027 |
| UAGUGACAGUGGAUCUCUGAGACAUUUACA | 0.000175 ± 0.029 |
| UAGUGACAGUCCUUCUGUGAGAGAUUAAGA | 0.00161 ± 0.0047 |
| UAGUGACAGUGGAAGUCUGAGAGUAUUAACA | 0.000487 ± 0.0044 |
| UAGUGACAGUCCUUCUCUCUCAGAUUAACA | 0.00183 ± 0.0045 |

| Sequence | pre-steady-state target cleavage rate |
| --- | --- |
| UAGUGACAGUGGAAGUCUGAGAUAUUAACA | 0.000759 ± 0.0069 |
| UAGUGACAGUGGUGCUCUGAGAGAUUAACA | 0.00261 ± 0.004 |
| UAGUGACACACCUUGUCUGAGUGAUUAACA | 0.00304 ± 0.0049 |
| UAGUCUGUCACCUUCUCUGACUCAUUAAGA | 0.000604 ± 0.0055 |
| UAGUCUCUCACCUUCUGUGAGAGAUUAACA | 0.00147 ± 0.0094 |
| UAGUGACUCUGGUUCUCUGAGAGAUUAUGA | 0.000265 ± 0.035 |
| UAGUGACAGACCUUCUCUAGAGAUUAACA | 0.00349 ± 0.0055 |
| UAGUGACAGUGCUUCUCUGAGUAGAUUAACA | 0.00136 ± 0.0097 |
| UAGUGACUCACCUUGAGUGAGAGAUUAUGA | 0.000422 ± 0.026 |
| UAGUGACAGACCUUCUCUGAGACUUUUUGA | 0.000114 ± 0.086 |
| UAGUGACAGUCCUUCUCUGAGAGAUUACCA | 0.00831 ± 0.0032 |
| UAGUGACAGUGGAUCUCUCUCAGAUUAACA | 0.000305 ± 0.021 |
| UAGUGACAGUGGAACUCUGAAGAGAUUAACA | 0.000112 ± 0.071 |
| UAGUGACUCACGUUCUCUGAGAGAUUUUGA | 0.000706 ± 0.011 |
| UAGUGACAGUGGAAGAGAGAGCAGAUUAACA | 0.00017 ± 0.034 |
| UAGUGACAGUGGAAGACUGAGACUAUAACA | 0.000249 ± 0.03 |
| UAGUGACAGUGGAAGACUGACAGAUUUACA | < 0.0001 |
| UAGUGUGUCACCUUCUCCGAGAGAUUAACA | 0.373 ± 0.1 |
| UAGUGACAGUGGAUCUCUGACAGAUUAUCA | 0.000205 ± 0.037 |
| UAGUGACAGUCCUUCUCUGUAGAGAUUAACA | 0.000422 ± 0.0086 |
| UAGUGACUCACCUUGACUGAGAGAUAUUGA | 0.00056 ± 0.018 |
| UAGUGACACACCUUCUCUGAGACAUUAUGA | 0.00103 ± 0.0072 |
| UAGUGACAGACCUUCUCUGAAGAGAUUAACA | 0.000497 ± 0.013 |

| Sequence | pre-steady-state target cleavage rate |
| --- | --- |
| UAGUGACAGUGCUUCUCUGACUCAUUAACA | 0.000669 ± 0.0088 |
| UAGUGACAGUGCUUCUGUGACAGAUUAACA | 0.00166 ± 0.0062 |
| UAGUGACUCACCUUCUCUGCAGAGAUUAACA | 0.000779 ± 0.01 |
| UAGUGAGUCACCUUGAGUGAGAGAUUAAGA | 0.00345 ± 0.005 |
| UAGUGACAGUGGAAGUCUGAGUGAUAAACA | 0.000198 ± 0.021 |
| UAGUGACAGUGGUUCUCUGAGACGAUUAACA | 0.000145 ± 0.019 |
| UAGUGACUCACCUUCUGAGAGAGAUAUUGA | 0.000874 ± 0.0092 |
| UAGUGACAGAGCUUCUCUGAGAGAAUAACA | 0.00329 ± 0.0036 |
| UAGUGACAGUGGUUCACUGUGAGAUUAACA | 0.000884 ± 0.01 |
| UAGUGACAGUGGAAGAGACUCACAUUAACA | 0.000163 ± 0.02 |
| UAGUGACAGUGGAAGAGUGACUCAUUAACA | 0.000512 ± 0.014 |
| UAGUGAGUCACCUUCUCGAGAGAUUAACA | 0.0598 ± 0.015 |
| UAGUGACAGUGGUUCUGUGAGAGUUUAACA | 0.000458 ± 0.013 |
| UAGUGAGUGACCUUCUCUGAGAGAUAAACA | 0.0814 ± 0.021 |
| UAGUGACAGUGCUUCUCUGACACAUUAACA | 0.00031 ± 0.017 |
| UAGUGAGUCACCUUCUCUGAGAGUUUAACA | 0.277 ± 0.061 |
| UAGUGACAGUCCUUCUCUGCAGAGAUUAACA | 0.000122 ± 0.016 |
| UAGUCUGUCAGGUUCUCUGAGAGAUUAUGA | 0.00124 ± 0.0059 |
| UAGUGACAGUGGUUCUCGGAGAGAUUAACA | 0.000174 ± 0.017 |
| UAGUGACAGACCUUCUCUGACUCAUUAACA | 0.00137 ± 0.0092 |
| UAGUCUGUCACCUUGUCUGAGAGAUUAACA | 0.133 ± 0.016 |
| UAGUGACAGUGGAUCUCUGAGAGAUUAACU [g2:g17:cont:t1U] | 0.00183 ± 0.0049 |

28 successive entries from above:

| Sequence | pre-steady-state target cleavage rate |
| --- | --- |
| UAGUGACAGUGGAACUCUGAAGAGAUUAACA | 0.000112 ± 0.071 |
| UAGUGACUCACGUUCUCUGAGAGAUUUUGA | 0.000706 ± 0.011 |
| UAGUGACAGUGGAAGAGAGAGCAGAUUAACA | 0.00017 ± 0.034 |
| UAGUGACAGUGGAAGACUGAGACUAUAACA | 0.000249 ± 0.03 |
| UAGUGACAGUGGAAGACUGACAGAUUUACA | < 0.0001 |
| UAGUGUGUCACCUUCUCCGAGAGAUUAACA | 0.373 ± 0.1 |
| UAGUGACAGUGGAUCUCUGACAGAUUAUCA | 0.000205 ± 0.037 |
| UAGUGACAGUCCUUCUCUGUAGAGAUUAACA | 0.000422 ± 0.0086 |
| UAGUGACUCACCUUGACUGAGAGAUAUUGA | 0.00056 ± 0.018 |
| UAGUGACACACCUUCUCUGAGACAUUAUGA | 0.00103 ± 0.0072 |
| UAGUGACAGACCUUCUCUGAAGAGAUUAACA | 0.000497 ± 0.013 |
| UAGUGACAGUGCUUCUCUGACUCAUUAACA | 0.000669 ± 0.0088 |
| UAGUGACAGUGCUUCUGUGACAGAUUAACA | 0.00166 ± 0.0062 |
| UAGUGACUCACCUUCUCUGCAGAGAUUAACA | 0.000779 ± 0.01 |
| UAGUGAGUCACCUUGAGUGAGAGAUUAAGA | 0.00345 ± 0.005 |
| UAGUGACAGUGGAAGUCUGAGUGAUAAACA | 0.000198 ± 0.021 |
| UAGUGACAGUGGUUCUCUGAGACGAUUAACA | 0.000145 ± 0.019 |
| UAGUGACUCACCUUCUGAGAGAGAUAUUGA | 0.000874 ± 0.0092 |
| UAGUGACAGAGCUUCUCUGAGAGAAUAACA | 0.00329 ± 0.0036 |
| UAGUGACAGUGGUUCACUGUGAGAUUAACA | 0.000884 ± 0.01 |
| UAGUGACAGUGGAAGAGACUCACAUUAACA | 0.000163 ± 0.02 |
| UAGUGACAGUGGAAGAGUGACUCAUUAACA | 0.000512 ± 0.014 |
| UAGUGAGUCACCUUCUCGAGAGAUUAACA | 0.0598 ± 0.015 |
| UAGUGACAGUGGUUCUGUGAGAGUUUAACA | 0.000458 ± 0.013 |
| UAGUGAGUGACCUUCUCUGAGAGAUAAACA | 0.0814 ± 0.021 |
| UAGUGACAGUGCUUCUCUGACACAUUAACA | 0.00031 ± 0.017 |
| UAGUGAGUCACCUUCUCUGAGAGUUUAACA | 0.277 ± 0.061 |
| UAGUGACAGUCCUUCUCUGCAGAGAUUAACA | 0.000122 ± 0.016 |
